Results on two substances are retold here after paper doi:10.1101/2024.07.10.602886.

By UniProt entry, the sequences of proteins in these tests, tags left out.
UniProt Q9H1Y0: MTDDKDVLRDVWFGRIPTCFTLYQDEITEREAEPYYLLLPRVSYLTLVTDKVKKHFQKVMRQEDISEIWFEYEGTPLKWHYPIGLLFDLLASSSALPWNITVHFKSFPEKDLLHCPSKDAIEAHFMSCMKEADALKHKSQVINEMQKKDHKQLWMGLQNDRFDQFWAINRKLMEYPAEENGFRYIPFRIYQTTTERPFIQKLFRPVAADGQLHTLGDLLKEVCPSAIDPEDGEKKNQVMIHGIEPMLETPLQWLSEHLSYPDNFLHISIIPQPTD
UniProt Q92609: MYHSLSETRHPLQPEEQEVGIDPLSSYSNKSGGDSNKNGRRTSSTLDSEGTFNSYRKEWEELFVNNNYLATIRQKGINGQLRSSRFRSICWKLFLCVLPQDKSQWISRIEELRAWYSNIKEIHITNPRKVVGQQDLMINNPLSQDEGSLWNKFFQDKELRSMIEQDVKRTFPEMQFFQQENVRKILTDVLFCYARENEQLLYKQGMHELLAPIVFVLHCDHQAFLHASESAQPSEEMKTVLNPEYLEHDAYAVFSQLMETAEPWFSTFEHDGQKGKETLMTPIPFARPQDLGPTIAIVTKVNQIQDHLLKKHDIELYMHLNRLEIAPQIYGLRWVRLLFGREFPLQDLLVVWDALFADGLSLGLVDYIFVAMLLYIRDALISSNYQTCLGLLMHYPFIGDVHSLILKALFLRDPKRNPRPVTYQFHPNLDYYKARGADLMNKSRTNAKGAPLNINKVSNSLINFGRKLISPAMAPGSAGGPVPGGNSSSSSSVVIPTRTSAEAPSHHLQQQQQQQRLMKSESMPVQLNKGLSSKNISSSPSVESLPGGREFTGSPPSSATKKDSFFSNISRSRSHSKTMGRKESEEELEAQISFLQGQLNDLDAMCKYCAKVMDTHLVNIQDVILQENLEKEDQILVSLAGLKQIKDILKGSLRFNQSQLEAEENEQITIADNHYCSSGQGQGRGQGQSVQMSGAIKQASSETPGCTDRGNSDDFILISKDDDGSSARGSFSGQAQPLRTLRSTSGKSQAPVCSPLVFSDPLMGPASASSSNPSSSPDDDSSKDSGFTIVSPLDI

Assay [1] has as its target ATG5 (endogenous) (human (endogenous in HeLa)) (UniProt Q9H1Y0). As to the kind of experiment: co-IP; endogenous ATG5 and endogenous retromer subunits in HeLa cells treated with or without 2 mM LLOMe for 30 min; NP-40 buffer lysates, Dynabeads, immunoblot; which side was precipitated is not stated.
For the next assay, the target named is LC3A (UniProt Q9H492). As to the kind of experiment: co-IP; LC3A co-IPs blotted for TBC1D5 and VPS35; cells under CASM-inducing treatments and bafilomycin A1.

Results are given in words; binding and its absence hold for the method and conditions named. In cells and extracts the contact can be indirect. Some binding calls cover weakened binding; strength is not graded here.

Consider “VPS26A (endogenous) (from UniProt O75436 1-327)”, for which, in assay [1], the binding entry was “binds”.
For the substance TBC1D5 (from UniProt Q92609 1-795), in the assay with LC3A, the binding result is reported as “binds”.
